The values are deposited in ChEMBL (CHEMBL3988442, “University of Dundee, Small-Polar-MMV Screening Library” (2021)).

A: 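Growth of Mycobacterium tuberculosis over 4 days (cholesterol / DPPC medium with tyloxapol); the read-out is not stated. Compounds at 50 µM. Direction is inferred from retests: higher values go with more growth inhibition. Of about 69,000 compounds tested this way, about 370 (0.54%) reached 50% or more in at least one test.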
B: 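Growth of Mycobacterium tuberculosis over 3 days (7H9 medium with glucose and tyloxapol); the read-out is not stated. Concentration: 50 µM. Direction is inferred from retests: higher values go with more growth inhibition. Size under these conditions: about 69,000 compounds, about 760 of them at 50% or above in at least one test.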

Values are the deposited “Percent Effect”, in %.
How 0% and 100% were set is not recorded. Most values in the screen are low, and negative values occur.
This is an unselected part of the compounds tested.
Two or more numbers in one place are separate tests of the same structure; such repeats can differ widely.
A dash means the value is not listed here; it may have been measured.

| compound | A | B |
|---|---|---|
| `Cn1nnnc1SC1CCN(c2ccccc2Cl)C1=O` (stereo not drawn) | -8.371% | -5.542% |
| `Cl.Cl.Cn1cnc2c(N3CCCC3)nc(C3CCNCC3)cc21` | 19.16% | 13.84% |
| `c1cc(CNCc2cccc3c2OCCO3)cc(Cn2cncn2)c1` | -10.81% | -15.93% |
| `Cc1nn(C)c(N(C)C)c1CNCCOc1ccc2c(c1)OCO2.Cl` | 2.928% | 17.72% |
| `COCCN1CC(C(=O)Nc2ccc3c(c2)CCC(=O)N3C)CC1=O` (stereo not drawn) | 10.77% | 16.19% |
| `CC(=O)N1CCN(Cc2ccc(C(F)(F)F)cc2F)CC(O)C1` (stereo not drawn) | 14.88% | -16.58% and 0.5001% |
| `COc1ccc(C(C)CCNC2CCN(c3ccccn3)CC2)cc1` (stereo not drawn) | 6.761% and 19.5% | 33.57% |
| `O=C(NCCOCC(F)(F)F)c1ccc(-c2ccco2)[nH]c1=O` | -26.78% | 12.13% |
| `O=C(CS(=O)(=O)c1ccccn1)NC1CCCc2ccccc21` (stereo not drawn) | 7.785% | -1.868% |
| `COc1ccc2c(c1)C(NCCc1ccccn1)CCCO2` (stereo not drawn) | 12.85% | -9.253% |
| `CC(Cn1ccnc1)NC(=O)NCc1cccnc1OC1CCCC1` (stereo not drawn) | 2.316% | 0.65% |
| `[H][C@]12CC[C@@]3(N=C(CC)N(CC)C3=O)[C@@]1([H])CN(C(=O)Nc1ccccc1)C2` | 0.6836% | 10.59% |
| `O=C(CCc1nc(Cl)n[nH]1)NC1CCCN(CC2CCCCC2)C1` (stereo not drawn) | 3.387% | -0.1881% |
| `CC(OCC1CC1)C(=O)N1CCCN(Cc2cnn(C)c2)CC1` (stereo not drawn) | -37.13% | -39.83% |
| `O=C(O)C(F)(F)F.[H][C@@]12CCCO[C@]1([H])[C@@H](OCC(=O)N(C)C)CN2Cc1cccc(F)c1` | -7.843% | 2.514% and -5.867% |
| `O=C(O)C(F)(F)F.[H][C@@]12CCCO[C@]1([H])[C@H](NC(=O)c1ccnnc1)CN(c1ncccn1)C2` | -13.64% | 11.76% and -3.234% |
| `CCc1nc(CN2CC[C@@](O)(CCOC)[C@H](C)C2)cs1` | -6.663% | 0.155% and -40.42% |
| `COCCn1ccnc1-c1[nH]cnc1C` | -2.399% | -25.47% |
| `CS(=O)(=O)c1nccn1CCOc1ccccc1F` | -3.101% | -10.59% |
| `O=C(NCCc1coc(-c2ccccc2)n1)NC1CC1` | 13.69% | 13.1% |
| `COc1ccc(O[C@H]2COCCN(Cc3c[nH]c4ccccc34)C2)cc1` | 4.679% | -2.823% and -23.71% |
| `Cn1c(Cn2cccn2)nnc1C1CCN(Cc2ccccc2Cl)CC1` | -5.028% | -3.027% |
| `CN(C)CCNC(=O)c1cnc2c(c1)nc(-c1ccccc1Cl)n2C` | -4.959% | 19.36% |
| `O=C(Nc1ccc(N2CCCC2)nc1)N1CCc2ccccc2C1` | 9.274% and -0.6762% | 7.027% |
| `NC(=O)C(NC(=O)c1cc(Br)c[nH]1)c1ccccc1` (stereo not drawn) | -67.59% and 2.795% | 2.334% |
| `CC(=O)Nc1ccc(SCC(O)COCc2ccco2)cc1` (stereo not drawn) | -34.56% | -4.486% and 1.171% |
| `CCOCCN1CCn2c(C)nnc2C1` | 106.4% | -55.3% |
| `O=C(O)C(F)(F)F.[H][C@@]12CCN(Cc3ccc4c(c3)OCO4)C[C@]1(C(=O)NC1CC1)CCO2` | -6.878% | -13.48% |
| `[H][C@@]12C[C@H](C(=O)NCC3CC3)CN(Cc3ccoc3)[C@]1([H])CCO2` | -5.144% | -17.49% |
| `O=C(Cn1cc(C2CC2)nn1)NC(c1cc(F)ccc1F)C1CC1` (stereo not drawn) | 0.1224% and -0.1153% | 7.107% and -0.8072% |
| `CC(C)(C)S(=O)(=O)CCNC(=O)c1cnc(-c2ccccc2)nc1` | 1.792% | -14.81% and 1.073% |
| `[H][C@@]12CCN(C(=O)NC)CC[C@]1(C(=O)Nc1ccccc1)CCN2C` | 8.008% and -2.502% | 13.2% |
| `CC1CCc2nc(NS(=O)(=O)c3cnn(C)c3)sc2C1` (stereo not drawn) | 2.134% and 4.437% | 4.699% |
| `CC(C)c1nc(CN(C)C(=O)Cn2nc3ccccc3n2)no1` | 1.848% | 5.418% |
| `O=C(c1c[nH]c(=O)[nH]c1=O)N1CCCC(c2cnccn2)C1` (stereo not drawn) | -11.39% | 7.697% |
| `[H][C@@]12CNC(=O)N1CCN(Cc1cccc(C)n1)C2` | -8.61% | -5.668% and -10.5% |
| `CC(=O)N[C@@H]1C[C@H](c2ccc(OCCO)cc2)OC2(CCOCC2)C1` | 5.172% | -6.749% |
| `Cc1cc(F)ccc1C(=O)N1CCN(C)C2(CCC(=O)N(C)CC2)C1` (stereo not drawn) | 9.728% | 25.08% and -1.507% |
| `CN1CCN2CCN(C(=O)c3cnn4cc(CCO)cnc34)CC2C1` (stereo not drawn) | -9.109% | 7.584% and 7.507% |
| `Cc1nc(N2CCN(C)CC2)ncc1C(=O)N1CCC(O)(CO)CC1` | -5.958% | 1.867% |
| `[H][C@@]12CCN(Cc3nccs3)C[C@@]1([H])O[C@@H](C)C2` | 5.257% | 1.076% and -0.5147% |
| `O=C1N(Cc2ccncc2)CCC12CCCNC2` (stereo not drawn) | -2.913% | 4.996% |
| `COc1cc(C)c(CN2CCC3(CC2)[C@H](O)C[C@@H]3OCCN)cc1C` | -13.51% | -15.77% |
| `COc1ncc(NS(=O)(=O)c2ccc(F)c(F)c2)c(OC)n1` | -0.5234% | -8.699% |
| `CC[C@@H]1N(Cc2ccccn2)CCC[C@]12CCC(=O)N2CCOC` | 5.571% | -3.811% |
| `CC(CN1CCOCC1)NC(=O)NCc1cccs1` (stereo not drawn) | -12.7% and -16.64% | -12.87% |
| `CCOc1ccc(NC2CCN(C(C)C)C2=O)cn1` (stereo not drawn) | -53.05% | - |
| `[H][C@]12CC[C@]([H])(CN(Cc3cccnc3)C1)N(C(=O)c1ccc(SC)cc1)C2` | -15.83% | -11.81% |
| `Cc1ncc2c(n1)CN(Cc1nnc(-c3ccccc3)o1)CC2` | -5.138% | 2.584% |
| `OCCCNc1nc(O)c2c(n1)-c1ccccc1CC21CCCCC1` | 16.64% | 8.898% |
| `O=C(O)C(F)(F)F.[H][C@]12C[C@H](C(=O)NC)N(C)[C@@]1([H])CN(S(=O)(=O)c1ccc(C)cc1)C2` | -8.309% | 10.02% and 2.735% |
| `CCN(Cc1noc(CC(C)C)n1)Cc1cc2ccc(F)cc2[nH]c1=O` | 23.94% | 2.41% |
| `CN1CCC(c2ncc3c(n2)CCN(C(=O)CC2C=CCC2)C3)CC1` (stereo not drawn) | -18.05% | 15.58% |
| `CNS(=O)(=O)c1ccc(CN2CCCC2c2ccc(F)cc2)cc1` (stereo not drawn) | -8.727% | 15.34% |
| `CCOCc1nn(C)c2c1CN(Cc1cccs1)CC2.O=C(O)C(F)(F)F` | -4.131% | -16.71% |
| `Cn1cc(CN2CCCn3cnc(COCc4ccco4)c3C2)cn1` | -5.033% | -17.11% and -5.325% |
| `O=S(=O)(N1CCCCC1)N1CCC(Oc2cnccn2)CC1` | 6.215% | -6.052% |
| `COC(=O)CC1CCCCN1CC(=O)Nc1cc(F)ccc1F` (stereo not drawn) | 7.322% | 17.95% |
| `Cc1cc(NC(=O)NCCC(=O)N2CCCc3ccccc32)no1` | -8.081% | -33.07% |
| `CN1C[C@@H](n2cnc(-c3ccccc3)c2-c2nccn2C)C[C@H]1C(=O)O` | -6.817% | -3.607% |
| `CSc1nc2ccsc2c(=O)n1CC(=O)N(C)C1CCCCC1` | 29.75% | 54.41% |
| `CCc1ncc(CN(C)C2CCN(c3sccc3C#N)C2=O)s1` (stereo not drawn) | 0.6228% | -26.02% |
| `Cn1cc(C2CCCN2C(=O)c2ccc(OCC3CC3)nc2)cn1` (stereo not drawn) | 12.52% | 11.42% |
| `COCCC(=O)N1CC2(CCN(Cc3ccncc3)CC2)C1` | 2.003% and -14.49% | 2.108% |
| `CC(C)c1ccc(C(O)CN2CCN(Cc3nccn3C)CC2)cc1` (stereo not drawn) | 5.612% | 23.87% |
| `c1cc(CN2CCC(c3nnc4n3CCCCC4)CC2)c2c(c1)OCO2` | 5.258% | -8.685% |
| `O=C(O)C(F)(F)F.OCCN1CCOC2(CCCN(c3ncc(F)cn3)C2)C1` (stereo not drawn) | -15.33% | -5.381% and -20.01% |
| `COCCN1CCN(Cc2cnc(C)nc2)CC1` | 4.892% | 7.808% |
| `CCc1n[nH]c(C2CN(CCc3ccncc3)CCO2)n1` (stereo not drawn) | -4.51% | 6.362% |
| `COc1ccccc1-c1noc(CCC(=O)NC(C)Cn2cccn2)n1` (stereo not drawn) | 3.424% | -11.41% |
| `Cc1ncn(CCNC(=O)Nc2ccccc2)c(=O)c1C` | -5.17% | -26.77% |
| `O=C(Nc1cc(C(F)(F)F)c[nH]c1=O)C1CCCO1` (stereo not drawn) | -12.77% | -1.907% |
| `Cn1ccnc1CN(CCO)C(=O)c1cc2ccccc2o1` | -22.46% | -19.53% |

Some entries from above, unchanged:

compound	A	B
[H][C@@]12CCN(C(=O)NC)CC[C@]1(C(=O)Nc1ccccc1)CCN2C	8.008% and -2.502%	13.2%
Cn1ccnc1CN(CCO)C(=O)c1cc2ccccc2o1	-22.46%	-19.53%
O=C(Cn1cc(C2CC2)nn1)NC(c1cc(F)ccc1F)C1CC1 (stereo not drawn)	0.1224% and -0.1153%	7.107% and -0.8072%
O=C(NCCc1coc(-c2ccccc2)n1)NC1CC1	13.69%	13.1%
COc1ncc(NS(=O)(=O)c2ccc(F)c(F)c2)c(OC)n1	-0.5234%	-8.699%
O=C(O)C(F)(F)F.[H][C@@]12CCCO[C@]1([H])[C@@H](OCC(=O)N(C)C)CN2Cc1cccc(F)c1	-7.843%	2.514% and -5.867%
CCOc1ccc(NC2CCN(C(C)C)C2=O)cn1 (stereo not drawn)	-53.05%	-
CC(=O)N[C@@H]1C[C@H](c2ccc(OCCO)cc2)OC2(CCOCC2)C1	5.172%	-6.749%
CN(C)CCNC(=O)c1cnc2c(c1)nc(-c1ccccc1Cl)n2C	-4.959%	19.36%